Data as given in the NIST ThermoML archive (doi:10.1016/j.jct.2014.05.003).
Numbers after ± are expanded uncertainties.

Test: relative permittivity at zero frequency (dimensionless); wn = mass fraction of the nth substance listed
Details: 298.15 K, 100 kPa, Liquid, Coaxial cylinder capacitor

Q: For `CC(=O)N(C)C` [N,N-dimethylethanamide] + O, which “relative permittivity at zero frequency” value (w1 = 0.1) is on record?
A: 76.5 ± 0.2

Q: And the “relative permittivity at zero frequency” value (w1 = 0.2)?
A: 74.2 ± 0.2

Q: And the “relative permittivity at zero frequency” value (w1 = 0.3)?
A: 71.7 ± 0.2
